Assay results published in article PMC5786502.
For at least one entry, the source does not settle the construct or the ends of the probe. For some assays here: A weaker result is weaker than the reference pair of the same experiment. For some assays here: At least one verdict was read from the data and is not stated in words by the source.

Chains of the proteins cited; added tags and fusions are not shown. Lines headed by an entry give the natural chain unless they say otherwise; changes in a name come on top. Chains listed by the source or under a name are the forms on record and can include a tag or linker.
RPA G78E (Rfa1G78E-Rfa2-Rfa3) (Schizosaccharomyces pombe), one chain, as listed by the source G78E, chain 1 of 3: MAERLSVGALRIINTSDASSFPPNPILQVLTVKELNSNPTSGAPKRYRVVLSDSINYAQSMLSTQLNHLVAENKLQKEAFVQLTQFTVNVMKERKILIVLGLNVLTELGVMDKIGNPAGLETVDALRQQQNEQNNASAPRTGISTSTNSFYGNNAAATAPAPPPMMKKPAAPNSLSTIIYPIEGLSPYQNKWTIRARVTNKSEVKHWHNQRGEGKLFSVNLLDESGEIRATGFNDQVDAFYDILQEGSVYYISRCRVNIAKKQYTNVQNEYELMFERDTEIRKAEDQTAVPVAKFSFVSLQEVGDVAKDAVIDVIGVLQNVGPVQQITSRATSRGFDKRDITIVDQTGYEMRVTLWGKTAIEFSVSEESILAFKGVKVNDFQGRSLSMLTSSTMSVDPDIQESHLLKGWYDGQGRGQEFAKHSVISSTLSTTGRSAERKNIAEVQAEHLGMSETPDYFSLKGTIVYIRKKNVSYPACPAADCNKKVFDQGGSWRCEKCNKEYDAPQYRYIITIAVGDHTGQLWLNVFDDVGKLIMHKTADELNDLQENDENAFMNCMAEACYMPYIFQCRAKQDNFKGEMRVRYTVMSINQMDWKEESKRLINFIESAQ
RPA (Rfa1-Rfa2-Rfa3) (Schizosaccharomyces pombe), one chain, as listed by the source, chain 1 of 3: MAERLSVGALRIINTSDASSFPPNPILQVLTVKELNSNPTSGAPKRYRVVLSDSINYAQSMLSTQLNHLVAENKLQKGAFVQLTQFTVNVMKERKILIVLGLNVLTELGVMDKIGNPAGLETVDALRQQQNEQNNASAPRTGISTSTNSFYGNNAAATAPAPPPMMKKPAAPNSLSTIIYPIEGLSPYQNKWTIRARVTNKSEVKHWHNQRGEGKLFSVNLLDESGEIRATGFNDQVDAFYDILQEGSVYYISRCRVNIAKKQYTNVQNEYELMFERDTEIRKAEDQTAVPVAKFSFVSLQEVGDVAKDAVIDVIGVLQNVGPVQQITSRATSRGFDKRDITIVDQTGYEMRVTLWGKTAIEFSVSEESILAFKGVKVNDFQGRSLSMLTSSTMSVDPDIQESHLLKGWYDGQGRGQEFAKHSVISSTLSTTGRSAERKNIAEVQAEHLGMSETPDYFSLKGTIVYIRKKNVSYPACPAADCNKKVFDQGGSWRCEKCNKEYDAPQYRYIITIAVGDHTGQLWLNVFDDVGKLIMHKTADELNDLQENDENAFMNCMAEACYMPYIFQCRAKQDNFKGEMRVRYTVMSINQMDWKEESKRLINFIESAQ
RPA (Rfa1-Rfa2-Rfa3) (Schizosaccharomyces pombe), one chain, as listed by the source, chain 2 of 3: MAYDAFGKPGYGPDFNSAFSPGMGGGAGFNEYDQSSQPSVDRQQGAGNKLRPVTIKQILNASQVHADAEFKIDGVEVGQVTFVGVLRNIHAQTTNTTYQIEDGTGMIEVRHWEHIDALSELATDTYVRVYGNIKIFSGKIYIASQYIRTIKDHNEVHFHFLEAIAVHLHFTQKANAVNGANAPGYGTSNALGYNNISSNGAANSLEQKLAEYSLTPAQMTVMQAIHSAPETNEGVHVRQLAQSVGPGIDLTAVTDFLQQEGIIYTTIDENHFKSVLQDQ
RPA (Rfa1-Rfa2-Rfa3) (Schizosaccharomyces pombe), one chain, as listed by the source, chain 3 of 3: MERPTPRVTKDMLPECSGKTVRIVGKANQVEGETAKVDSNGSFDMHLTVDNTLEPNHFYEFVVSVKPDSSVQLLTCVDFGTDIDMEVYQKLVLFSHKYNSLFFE

What was measured:
[1] = test system: RPA (Rfa1-Rfa2-Rfa3) (Schizosaccharomyces pombe); test: EMSA; conditions: 100 nM DNA; EMSA: CL buffer (composition not given), 32 C 15 min, gels in TAE at 20 C; recombinant protein; protein details: 6xHis N-terminal on Rfa1; label: 5'-TAMRA; single-stranded DNA
[2] = test system: RPA G78E (Rfa1G78E-Rfa2-Rfa3) (Schizosaccharomyces pombe); test: EMSA; conditions: 100 nM DNA; EMSA: CL buffer (composition not given), 32 C 15 min, gels in TAE at 20 C; recombinant protein; protein details: 6xHis N-terminal on Rfa1; label: 5'-TAMRA; single-stranded DNA

“TTTTTTTTTTTTTTTTTTTTTTTTTTTTTTTTTTTTTTTTTTTTTTTTTTTTTT [oligo(dT)54]”: binds [1]; binds more weakly [2].
